PMC3350483, “Versatile Toolbox for High Throughput Biochemical and Functional Studies with Fluorescent Fusion Proteins” (PLoS ONE, 2012)
These are yes or no findings as the source states them, for the method shown. Binding seen in cells or lysates may run through a third protein. Some results given as binding are weak or reduced against the parent protein; the word gives no strength.

Sequences of proteins named here, by UniProt entry; tags and fusion partners are left off.
UniProt P13864: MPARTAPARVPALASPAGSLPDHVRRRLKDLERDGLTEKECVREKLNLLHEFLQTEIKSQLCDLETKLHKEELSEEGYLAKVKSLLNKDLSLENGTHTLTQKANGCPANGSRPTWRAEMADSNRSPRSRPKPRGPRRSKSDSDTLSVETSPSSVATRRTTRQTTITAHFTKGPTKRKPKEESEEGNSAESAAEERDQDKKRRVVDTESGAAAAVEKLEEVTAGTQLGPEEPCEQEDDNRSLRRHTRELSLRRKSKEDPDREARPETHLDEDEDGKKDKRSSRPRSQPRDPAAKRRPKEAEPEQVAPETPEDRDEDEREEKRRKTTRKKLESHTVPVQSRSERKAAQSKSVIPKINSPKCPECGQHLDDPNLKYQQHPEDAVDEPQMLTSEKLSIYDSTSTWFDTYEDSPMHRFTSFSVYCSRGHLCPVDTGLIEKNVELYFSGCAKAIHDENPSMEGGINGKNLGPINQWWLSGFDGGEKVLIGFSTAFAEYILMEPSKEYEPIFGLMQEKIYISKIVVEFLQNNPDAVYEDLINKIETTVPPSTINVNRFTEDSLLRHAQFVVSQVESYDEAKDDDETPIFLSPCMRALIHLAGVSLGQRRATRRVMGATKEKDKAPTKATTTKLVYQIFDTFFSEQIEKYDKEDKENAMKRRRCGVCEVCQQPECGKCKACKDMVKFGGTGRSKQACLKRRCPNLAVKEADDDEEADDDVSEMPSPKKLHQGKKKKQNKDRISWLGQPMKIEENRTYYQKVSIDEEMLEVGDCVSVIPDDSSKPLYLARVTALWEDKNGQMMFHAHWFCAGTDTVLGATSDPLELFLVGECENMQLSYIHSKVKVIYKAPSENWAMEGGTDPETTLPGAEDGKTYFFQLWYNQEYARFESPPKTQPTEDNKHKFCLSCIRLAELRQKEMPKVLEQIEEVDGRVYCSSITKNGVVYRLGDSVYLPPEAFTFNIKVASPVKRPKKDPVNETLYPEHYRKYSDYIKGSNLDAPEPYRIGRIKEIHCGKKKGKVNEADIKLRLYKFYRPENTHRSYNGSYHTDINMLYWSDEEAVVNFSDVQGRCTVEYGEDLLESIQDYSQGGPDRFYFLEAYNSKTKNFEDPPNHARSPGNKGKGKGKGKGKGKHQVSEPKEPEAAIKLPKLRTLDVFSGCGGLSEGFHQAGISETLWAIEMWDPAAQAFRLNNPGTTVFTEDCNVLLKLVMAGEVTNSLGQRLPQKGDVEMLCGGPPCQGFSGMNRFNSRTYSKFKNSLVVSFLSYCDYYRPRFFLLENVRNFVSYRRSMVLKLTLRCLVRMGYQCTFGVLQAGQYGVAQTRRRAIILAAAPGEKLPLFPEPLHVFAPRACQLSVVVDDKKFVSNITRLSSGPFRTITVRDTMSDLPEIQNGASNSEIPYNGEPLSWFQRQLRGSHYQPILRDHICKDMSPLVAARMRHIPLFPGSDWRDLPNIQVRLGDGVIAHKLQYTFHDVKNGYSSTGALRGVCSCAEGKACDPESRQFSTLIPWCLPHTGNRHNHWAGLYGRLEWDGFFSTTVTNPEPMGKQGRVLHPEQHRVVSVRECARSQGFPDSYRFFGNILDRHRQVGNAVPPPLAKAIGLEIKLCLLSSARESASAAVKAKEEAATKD
UniProt P12004: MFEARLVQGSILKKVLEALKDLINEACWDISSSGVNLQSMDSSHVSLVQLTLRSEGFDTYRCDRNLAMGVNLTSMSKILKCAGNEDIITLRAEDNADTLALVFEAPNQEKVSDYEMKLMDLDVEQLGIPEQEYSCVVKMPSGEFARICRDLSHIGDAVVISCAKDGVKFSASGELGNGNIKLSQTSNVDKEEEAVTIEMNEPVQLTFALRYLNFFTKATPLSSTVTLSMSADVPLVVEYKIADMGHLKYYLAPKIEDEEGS

Target: GFP-Dnmt1 (UniProt P13864)
Assay: co-IP + ELISA; GFP fusion precipitated from HEK293T extract on the GFP-multiTrap plate; bound fractions cross-linked with 2% formaldehyde and/or permeabilized with MeOH; endogenous PCNA or histone H3 detected by antibody, absorbance at 450 nm

- binding: binds
Substance: endogenous PCNA (from UniProt P12004 1-261)
